No constants are given. Whether binding was seen depends on the method and setting. In cells and extracts the contact can be indirect. For part of these data: Binding can be weak; no strength is given.
How the values were obtained:
[1] = target: HA-tagged SOX10 (SRY-related HMG box-containing factor 10) (UniProt P56693); test: co-IP; 293T cells co-transfected for 24 h, lysed in RIPA buffer (50 mM Tris-HCl pH 8.0, 100 mM NaCl, 0.5% Nonidet P-40, 5 mM EDTA, 2 mM DTT); anti-HA or anti-Myc agarose 2 h to overnight at 4°C, four washes with RIPA buffer; Western blot
[2] = target: SOX10-2A (SOX10 with mutated CPD motif) (UniProt P56693); test: as above

Amino acid sequences for entries named in this document (tags omitted). A change or cut given only in a name is not applied to a line headed by its entry.
UniProt P56693: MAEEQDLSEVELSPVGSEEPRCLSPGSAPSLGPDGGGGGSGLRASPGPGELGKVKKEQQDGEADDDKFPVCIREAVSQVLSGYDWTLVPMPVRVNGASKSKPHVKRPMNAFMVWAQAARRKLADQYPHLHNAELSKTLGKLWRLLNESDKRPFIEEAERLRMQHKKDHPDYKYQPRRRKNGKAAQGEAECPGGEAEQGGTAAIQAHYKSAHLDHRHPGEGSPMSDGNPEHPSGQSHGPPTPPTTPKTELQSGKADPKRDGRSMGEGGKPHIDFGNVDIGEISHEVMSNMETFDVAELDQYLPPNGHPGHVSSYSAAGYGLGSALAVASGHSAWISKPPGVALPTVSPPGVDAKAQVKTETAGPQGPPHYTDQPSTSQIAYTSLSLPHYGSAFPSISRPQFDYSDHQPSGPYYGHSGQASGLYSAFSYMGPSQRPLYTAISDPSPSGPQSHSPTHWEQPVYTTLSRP
UniProt Q969H0: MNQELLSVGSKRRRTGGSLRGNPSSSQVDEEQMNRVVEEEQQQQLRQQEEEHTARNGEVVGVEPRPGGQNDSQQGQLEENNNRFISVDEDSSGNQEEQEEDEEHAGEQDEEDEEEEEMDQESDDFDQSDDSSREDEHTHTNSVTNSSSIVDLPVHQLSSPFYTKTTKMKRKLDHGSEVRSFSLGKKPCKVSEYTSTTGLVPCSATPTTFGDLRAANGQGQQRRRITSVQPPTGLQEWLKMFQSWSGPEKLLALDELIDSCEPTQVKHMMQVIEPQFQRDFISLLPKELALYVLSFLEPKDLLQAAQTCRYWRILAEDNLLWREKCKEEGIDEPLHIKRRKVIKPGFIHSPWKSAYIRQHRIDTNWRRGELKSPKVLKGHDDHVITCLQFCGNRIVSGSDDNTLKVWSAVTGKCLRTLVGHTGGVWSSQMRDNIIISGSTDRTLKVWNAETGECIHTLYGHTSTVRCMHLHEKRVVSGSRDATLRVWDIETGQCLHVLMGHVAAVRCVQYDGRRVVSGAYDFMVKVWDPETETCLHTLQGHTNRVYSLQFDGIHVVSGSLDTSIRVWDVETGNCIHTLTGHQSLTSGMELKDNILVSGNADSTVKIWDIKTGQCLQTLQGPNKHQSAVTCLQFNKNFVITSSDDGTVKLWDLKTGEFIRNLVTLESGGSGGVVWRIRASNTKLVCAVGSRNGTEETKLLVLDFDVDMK
UniProt P49841: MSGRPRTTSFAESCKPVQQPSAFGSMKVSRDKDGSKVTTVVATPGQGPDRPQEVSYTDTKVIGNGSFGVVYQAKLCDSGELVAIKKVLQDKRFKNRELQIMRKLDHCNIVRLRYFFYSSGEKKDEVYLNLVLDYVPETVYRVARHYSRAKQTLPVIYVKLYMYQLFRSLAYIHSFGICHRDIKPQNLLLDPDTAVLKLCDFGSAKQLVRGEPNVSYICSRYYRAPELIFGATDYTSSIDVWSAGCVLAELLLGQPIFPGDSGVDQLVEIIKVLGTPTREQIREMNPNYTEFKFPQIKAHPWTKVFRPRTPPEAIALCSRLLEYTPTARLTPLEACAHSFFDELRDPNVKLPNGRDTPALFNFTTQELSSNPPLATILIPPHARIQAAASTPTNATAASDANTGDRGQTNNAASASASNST

Substance | binding [1] | binding [2]
Fbxw7α with the F-box deleted (from UniProt Q969H0) | binds | –
Myc-GSK3β (glycogen synthase kinase 3β) (from UniProt P49841 1-420) (enzyme) | – | no binding
Myc-tagged Fbxw7α (from UniProt Q969H0 1-707) | – | no binding
